# Laboratory results taken from patent US20210330735A1, “COMPOSITIONS AND METHODS FOR THE TREATMENT OF TRAUMATIC OPTIC NEUROPATHY” (Stealth BioTherapeutics Corp, priority 2018, published 2021).
# “Also recorded” adds a separate entry of the source. Not every detail of the peptide structures is certain; ends, links or a residue may be inferred. Some entries share one result that the patent states for a list of compounds. Non-standard residues stand in square brackets, D forms with d. Residues, ends and D or L forms follow the SMILES beside them. Dmt = Cc1cc(O)cc(C)c1C[C@H](N)C(=O)O
# Assays:
# [1] = tested on: retinal ganglion cells (RGC); experiment: RGC survival in optic nerve crush-induced TON (ONC-TON) model, Example 2; format: in vivo, rat; conditions: two weeks following injury, early use, peptide 2 mg/kg SQ for 7 days
# Excerpt: ONC-TON is induced by exposing the optic nerve of an adult rat and creating a small opening in the meninges of the nerve, as described in Solomon, A. et al., J. of Neurosci. Methods (1996) 70: 21-25, (incorporated herein by reference). The opening is created about 2-3 mm behind the eye globe. A glass dissector is introduced through the opening and is used to cut all the axons through the whole width of the nerve. Complete […] of the optic nerve axons is achieved, while retaining the continuity of the meninges and avoiding damage to the nerve's vascular supply. Transection can be confirmed by transillumination showing a complete gap in the continuity of the nerve axons, and by both morphological and electrophysiological criteria. The opening created in the ‘meningeal tube’ can be used to inject substances that may be of benefit in recovery, rescue and/or regeneration of the injured axons. […]
# A baseline recording of visual function by pattern electroretinogram (PERG) and imaging of the optic disc was performed prior to inducing SI-TON or ONC-TON. […] Euthanized animals were evaluated for RGC dropout by flat mount. […]
# To test if a combinatorial strategy results in improved visual outcomes, a therapeutic agent, such as a TNF-alpha inhibitor (e.g., etanercept), D-Arg-2′6′-Dmt-Lys-Phe-NH2, or a combination of these pharmaceutical agents was assessed. […]
# [2] = tested on: retinal ganglion cells (RGC); experiment: Visual function by PERG in SI-TON model, Example 2; format: in vivo, mice; conditions: treatment immediately following trauma
# [3] = tested on: retinal ganglion cells (RGC); experiment: Visual function by PERG in ONC-TON model, Example 2; format: in vivo, rat; conditions: treatment immediately following crush, 1 week post-crush
# [4] = tested on: retinal ganglion cells (RGC); experiment: RGC survival and nerve fiber bundle staining (TUBB3) after SI-TON, Example 5; format: in vivo, C57BL/6 J mice; conditions: for RGCs survived: subcutaneously injected alone (10 mg/kg Etanercept or 5 mg/kg peptide daily for six days), approximately, printed as two weeks post-injury
# [5] = tested on: retinal ganglion cells (RGCs); experiment: Safety and efficacy of acute intravitreal administration, PERG before and after SI-TON, Example 5; format: in vivo, C57BL/6 J mice; conditions: 4 weeks post-injury
# Protocol: To determine the safety of acute intravitreal administration of aromatic-cationic peptides in vivo, SI-TON was induced in 3-month-old C57BL/6 J mice with a Branson Digital Sonifier 450 (Branson) by a 3 mm microtip probe (Branson) in an acoustic soundproof enclosure chamber, as described in Example 2. Fifteen minutes following the induction of TON, a group of ten mice were administered 1.3 μL of 100 nM D-Arg-2′6′-Dmt-Lys-Phe-NH2 (MTP-131) intravitreally in the left eye (OS, treated). A different subset of mice was administered control PBS solution intravitreally in the left eye (OS, treated) followed by subcutaneous injection with 5 mg/kg D-Arg-2′6′-Dmt-Lys-Phe-NH2 fifteen minutes post-injury. A baseline recording of the mice visual function was recorded using electrophysiological recording of RGCs through PERG prior to SI-TON induction and the functional visual outcome of the mice was tested again 4 weeks post-injury.
# [6] = tested on: subjects suspected of having or diagnosed as having TON; experiment: Treatment of subjects with TON, Example 1 (predicted); format: in vivo
# Protocol: Subjects suspected of having or diagnosed as having TON receive daily administrations of 1 mg/kg body weight of aromatic-cationic peptide, such as 2′6′-Dmt-D-Arg-Phe-Lys-NH2, Phe-D-Arg-Phe-Lys-NH2, or D-Arg-2′6′-Dmt-Lys-Phe-NH2, or a pharmaceutically acceptable salt thereof (such as an mono, bis, or tri-acetate salt, a tartrate salt, a fumarate salt, a mono, bis, or tri-HCl salt, a mono, bis, or tri-tosylate salt, or a mono, bis, or tri-trifluoroacetate salt) alone or in combination with one or more additional therapeutic agents for the treatment or prevention of TON. Peptides and/or additional therapeutic agents are administered orally, topically, systemically, intravenously, subcutaneously, intravitreally, intraperitoneally, or intramuscularly according to methods known in the art. Subjects will be evaluated weekly for the presence and/or severity of signs and symptoms associated with TON including, but not limited to, e.g., vision loss, blurred vision, RGC damage, scotoma, decreased color sensation, uveitis, optic neuritis, eye pain, optic nerve avulsion, optic nerve transection, optic nerve sheath hemorrhage, orbital hemorrhage, choroidal rupture, and commotio retinae. Treatments are maintained until such a time as one or more signs or symptoms of TON are ameliorated or eliminated.
# [7] = tested on: mice with induced SI-TON or ONC-TON; experiment: Prevention of TON by pre-treatment in SI-TON or ONC-TON animal model, Example 3 (anticipated); format: in vivo; conditions: pre-treatment 1 or 5 mg/kg SC once daily
Molecule,percent RGC survival [1] [%],visual function (PERG) vs saline-treated control injured eyes ([2]; 1 week post-injury),visual function (PERG) vs saline-treated control injured eyes ([2]; 2 weeks post-injury),visual function (PERG) vs saline-treated control injured eyes [3],"protection of RGCs from cell death (RGC survival) ([4]; 1.3 μL of 100 nM peptide intravitreally 15 min post-injury, then SC Etanercept 10 mg/kg 3 days, then SC peptide 5 mg/kg 3 days)","nerve fiber bundle caliber and morphology (TUBB3 immunohistochemistry) ([4]; acute intravitreal injection, vs PBS-treated animals)",RGCs survived [4],"visual outcome (PERG), intravitreal vs subcutaneous administration ([5]; SI-TON, intravitreal 100 nM vs SC 5 mg/kg)",traumatic effect of SI-TON on RGCs (PERG electrical activity) vs non-injected animals ([5]; acute intravitreal injection of 100 nM 15 minutes post injury),"effect in combination with one or more additional therapeutic agents ([6]; compared with peptide or additional agent alone, expected)","severity of symptoms associated with TON ([6]; daily 1 mg/kg body weight, predicted)",PERG recordings and optic nerve disc morphology vs untreated and control peptide treated mice [7],RGC health vs untreated and control peptide treated mice [7],onset of TON vs untreated and control peptide treated mice [7]
Cc1cc(O)cc(C)c1C[C@H](NC(=O)[C@H](N)CCCNC(=N)N)C(=O)N[C@@H](CCCCN)C(=O)N[C@@H](Cc1ccccc1)C(N)=O [D-Arg-2′6′-Dmt-Lys-Phe-NH2] (H-[dR][Dmt]KF-NH2),51.13±1.47,improvement in visual function was significant,improvement in visual function was significant,improvement in visual function was significant,significantly protected RGCs from cell death; also recorded: more effective than subcutaneous injection alone,preservation of nerve fiber bundle caliber and morphology throughout the retina,90%-100%,augmented the visual outcome (PERG) effect of the drug beyond subcutaneous administration alone,significantly reduced,synergistic effects,reduced severity or elimination of one or more symptoms associated with TON,healthier PERG recordings and optic nerve disc morphology,healthier RGCs,delay or prevent the onset TON
etanercept,–,–,–,–,–,–,90%-100%,–,–,–,–,–,–,–
